Test system: GBM-37
Assay: cDNA microarray transcriptome analysis
Type: cell-based, human
Conditions: GBM-37, 100 nM 3dc
Method: In addition, GBM-37 was treated with 100 nM of 3dc, and transcriptome changes were confirmed through cDNA microarray analysis.

For `FC(F)(F)c1ccc2c(c1)N(CCCCN1CCC(N3CCCC3)CC1)c1ccccc1S2` [3dc, 10-(4-(4-(pyrrolidin-1-yl)piperidin-1-yl)butyl)-2-(trifluoromethyl)-10H-phenothiazine], the “genes down-regulated compared to the control group” value was 2979 genes and the “genes up-regulated compared to the control group” value was 70 genes.
